Data published in publication PMC12630028.
No constants are given. Whether binding was seen depends on the method and setting. Binding seen in cells or lysates may run through a third protein. Some results given as binding are weak or reduced against the parent protein; the word gives no strength.

The chains behind the UniProt entries cited, without tags or fusion partners.
UniProt O00401: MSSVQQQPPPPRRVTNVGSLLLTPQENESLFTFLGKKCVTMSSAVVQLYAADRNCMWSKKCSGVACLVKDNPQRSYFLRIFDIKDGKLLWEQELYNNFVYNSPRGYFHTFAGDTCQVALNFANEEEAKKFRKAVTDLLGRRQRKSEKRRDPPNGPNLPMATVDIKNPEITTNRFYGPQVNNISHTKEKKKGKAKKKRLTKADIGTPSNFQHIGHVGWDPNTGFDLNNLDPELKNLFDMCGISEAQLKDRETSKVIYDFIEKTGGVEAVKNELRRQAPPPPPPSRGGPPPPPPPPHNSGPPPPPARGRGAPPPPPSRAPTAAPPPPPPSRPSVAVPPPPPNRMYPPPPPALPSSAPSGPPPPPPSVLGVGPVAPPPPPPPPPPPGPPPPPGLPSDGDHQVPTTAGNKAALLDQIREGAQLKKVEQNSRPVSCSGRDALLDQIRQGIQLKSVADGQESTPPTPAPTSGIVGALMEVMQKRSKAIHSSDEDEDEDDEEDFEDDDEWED
UniProt O43795: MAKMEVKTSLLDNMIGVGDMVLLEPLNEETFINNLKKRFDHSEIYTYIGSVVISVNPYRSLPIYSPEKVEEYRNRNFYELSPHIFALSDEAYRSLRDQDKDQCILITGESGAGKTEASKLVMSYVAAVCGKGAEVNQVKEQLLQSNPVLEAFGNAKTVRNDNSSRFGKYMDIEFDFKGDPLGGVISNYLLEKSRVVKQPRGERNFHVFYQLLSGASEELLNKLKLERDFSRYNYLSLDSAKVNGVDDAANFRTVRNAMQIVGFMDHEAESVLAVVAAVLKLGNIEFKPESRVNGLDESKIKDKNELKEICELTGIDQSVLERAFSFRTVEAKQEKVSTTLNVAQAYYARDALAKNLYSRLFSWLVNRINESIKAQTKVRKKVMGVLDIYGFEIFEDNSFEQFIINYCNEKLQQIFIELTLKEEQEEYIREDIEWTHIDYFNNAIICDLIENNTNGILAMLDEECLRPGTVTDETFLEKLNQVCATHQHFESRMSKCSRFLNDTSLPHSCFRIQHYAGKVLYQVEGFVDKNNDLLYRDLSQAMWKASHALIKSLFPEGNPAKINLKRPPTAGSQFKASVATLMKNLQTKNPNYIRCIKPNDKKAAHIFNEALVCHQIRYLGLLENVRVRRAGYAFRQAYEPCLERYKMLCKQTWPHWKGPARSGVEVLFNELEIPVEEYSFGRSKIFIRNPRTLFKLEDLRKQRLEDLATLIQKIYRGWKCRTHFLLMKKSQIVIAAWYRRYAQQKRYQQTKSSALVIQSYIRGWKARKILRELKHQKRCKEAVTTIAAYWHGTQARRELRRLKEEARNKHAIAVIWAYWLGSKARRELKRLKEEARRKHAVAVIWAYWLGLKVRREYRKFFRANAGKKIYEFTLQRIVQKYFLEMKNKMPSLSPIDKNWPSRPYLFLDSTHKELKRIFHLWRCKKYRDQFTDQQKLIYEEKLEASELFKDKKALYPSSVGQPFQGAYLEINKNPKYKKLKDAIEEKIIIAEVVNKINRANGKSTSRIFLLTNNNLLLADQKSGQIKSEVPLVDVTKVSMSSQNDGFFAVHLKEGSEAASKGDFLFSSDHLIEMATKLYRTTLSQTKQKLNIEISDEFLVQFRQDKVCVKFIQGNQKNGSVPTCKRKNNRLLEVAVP

Legend:
[1] = molecular target: neural Wiskott-Aldrich syndrome protein (N-WASP) (human (endogenous in BeWo)) (UniProt O00401); assay: co-IP; BeWo cells (1 x 10^7) lysed in NP-40 buffer; 5 ug N-WASP antibody or Myosin Ib antibody overnight at 4 °C, protein A/G magnetic beads 3 h at room temperature; eluate analysed by Western blot
[2] = molecular target: myosin 1B (MYO1B) (human (endogenous in BeWo)) (UniProt O43795); assay: as above

| binding [1] | binding [2] | Substance |
| --- | --- | --- |
| binds |  | myosin 1B (MYO1B) (from UniProt O43795 1-1136) |
|  | binds | neural Wiskott-Aldrich syndrome protein (N-WASP) (from UniProt O00401 1-505) |
